# Laboratory results as given in PubChem BioAssay AID540256 (National Center for Advancing Translational Sciences (NCATS), 2011).
# The whole screen tested about 300,000 compounds, of which about 3,700 (1.2%) were called active. The shares of active, inactive and inconclusive entries below differ from those in the screen. Calls come from the whole dose curve; tested in HEK293 cells. A potency beside an inconclusive call is a rough fit, not a confirmed value.
# Test: qHTS for Inhibitors of binding or entry into cells for Lassa Virus; note: nearly all actives have a fitted effect of over 50% in size
# Conditions: Lassa virus pseudotype entry inhibition, cell reporter; activity change, negative = inhibition: at 37.9 µM (top of the series) unless noted
# % is set by controls: 0 for no effect and ±100 for the full control effect; potency is the fitted concentration of half-maximal effect.
Compound,Potency,"activity change, negative = inhibition"
C=CCN(c1ccccc1OC)S(=O)(=O)c1cccc(C(=O)OCC(=O)c2c[nH]c3ccccc23)c1,active: 9.2 µM,
CN(Cc1ccccc1)S(=O)(=O)c1ccc(C(=O)Nc2nnc(C3CC3)o2)cc1,"inconclusive: 35.5 µM [inhibitor, single point]",
CC(C)(C)NC(=O)CN1CCCN(C(=O)COc2ccc(Cl)c3ccccc23)CC1,"inconclusive: 20 µM [inhibitor, partial curve, poor fit]",
COc1ccc(NS(=O)(=O)c2cccc(NC(=O)NC3CCCCC3)c2)cc1,active: 2 µM,
COc1ccc(NC(=O)C2CCCN(c3nnc(C)c4c(C)n(-c5ccccc5)nc34)C2)cc1Cl (centres undefined),"inconclusive: 22.4 µM [inhibitor, single point]",
Cc1ccc(/C=C(\C#N)c2nc3ccccc3c(=O)[nH]2)cc1,,inactive: -19.5% [at 46.1 µM]
CCOc1ccccc1-n1c(SCC(N)=O)nnc1-c1ccc(O)cc1,"inconclusive: 4.11 µM [inhibitor, partial curve, poor fit]",
CCN(CC)c1ccc(/C=C2/C(=O)ON=C2C)cc1,,inactive: 0.121%
Cc1ccccc1/C=N/Nc1nc2ccccc2[nH]1,"inconclusive: 2.82 µM [activator, partial curve, poor fit]",
O=C(Nc1nnc(S(=O)(=O)N2CCc3ccccc32)s1)c1cccc(Cl)c1,,inactive: 14.1% [at 46.1 µM]
Cc1ccc2nc(N(CCCN(C)C)C(=O)c3ccc(S(=O)(=O)N(C)C)cc3)sc2c1,,inactive: 11.6%
Cc1[nH]c2ccccc2c1C(=O)C(C)OC(=O)c1ccc(NC(=O)CC#N)cc1 (centres undefined),"inconclusive: 17.8 µM [inhibitor, partial curve, poor fit]",
CN(Cc1ccccc1)C(=O)CSc1nc(-c2ccc(F)cc2)cc(C(F)(F)F)n1,,inactive: -12.2% [at 46.1 µM]
Cc1cccc(NC(=S)NCc2ccc3[nH]c4c(c3c2)CCCC4)c1,active: 20.6 µM,
CCc1ccc(NC(=O)CCCN2C(=O)C3CC=CCC3C2=O)cc1 (centres undefined),"inconclusive: 35.5 µM [inhibitor, single point]",
CCN(CC)CCCn1c(=S)[nH]c2cc(Cl)ccc2c1=O,,inactive: -0.472%
Nc1ccc2[nH]ncc2c1,,inactive: -5.92%
Cc1ccc(OCCCn2ccnc2)c([N+](=O)[O-])c1,"inconclusive: 1.26 µM [activator, single point]",
O=C(CN1C(=O)C(=O)N(Cc2ccccc2)C1=O)Nc1cc(Cl)cc(Cl)c1,,inactive: -10.3%
O=C(Nc1ncc(Cc2ccccc2)s1)c1cccs1,"inconclusive: 25.1 µM [inhibitor, single point]",
CCOC(=O)c1cnc(-n2nc(C)cc2C)nc1NC1CCCC1,"inconclusive: 10 µM [inhibitor, partial curve, poor fit]",
CCN(CC)c1ccc(NC(=O)C2CCN(S(=O)(=O)c3cnc[nH]3)CC2)c(C)c1,,inactive: -14.4% [at 46.1 µM]

Compound,Potency,"activity change, negative = inhibition"
Cc1ccc(NC(=O)C2CC(=O)N(c3ccc(OC(C)C)cc3)C2)cc1 (centres undefined),,inactive: -19% [at 46.1 µM]
COc1ccccc1Nc1nc(C)c(C(=O)Nc2ccccc2)s1,"inconclusive: 35.5 µM [inhibitor, single point]",
CCOc1ccc(CC(=O)NCC(c2cccs2)S(=O)(=O)c2ccc(F)c(C)c2)cc1 (centres undefined),"inconclusive: 3.16 µM [inhibitor, partial curve, poor fit]",
CCN1CCc2c(C#N)c(N3CCCCC3)nc(N3CCOCC3)c2C1,"inconclusive: 3.98 µM [inhibitor, full curve]",
COc1ccc(NC(=O)CSc2nnc(-c3cccs3)n2Cc2ccco2)cc1OC,"inconclusive: 1.3 µM [inhibitor, single point]",
N#Cc1ccccc1Sc1ccccc1N,,inactive: 13.1%
Cc1ccc(C(=O)O/N=C(\N)c2ccccc2)c(Cl)c1,"inconclusive: 7.08 µM [inhibitor, full curve]",
O=C(NNC(=S)Nc1ccc(Cl)cc1)c1ccccc1OC(F)F,"inconclusive: 35.5 µM [inhibitor, single point]",
O=C1OC(C(=O)Nc2cc(C(F)(F)F)ccc2Cl)Cc2ccccc21 (centres undefined),,inactive: -18.4% [at 46.1 µM]
CCN1CCN(c2ccc([N+](=O)[O-])cc2C(=O)c2ccc(Cl)cc2)CC1,"inconclusive: 11.2 µM [inhibitor, partial curve, poor fit]",
Cc1ccc(C)c(N2CCN(C(=O)c3cnn(-c4ccccc4Cl)c3C3CCN(C(=O)OC(C)(C)C)CC3)CC2)c1,"inconclusive: 3.98 µM [inhibitor, full curve]",
O=C(CSc1nc(-c2ccc(F)cc2)[nH]c1-c1ccc(F)cc1)Nc1ccc2c(c1)OCCO2,"inconclusive: 35.5 µM [inhibitor, single point]",
CCc1noc(C)c1C(=O)N1CCSC1=Nc1cccc(Cl)c1C,"inconclusive: 14.1 µM [inhibitor, single point]",
CCN(C(=O)CCS(=O)(=O)c1cccc2nonc12)c1ccc(C)c(C)c1,,inactive: -7.33%
Cc1ccc(C(=O)NCCSc2c(C)[nH]c3ccccc23)cc1[N+](=O)[O-],"inconclusive: 29.1 µM [inhibitor, single point]",
Cc1ccc(C(=O)OCC(=O)c2c[nH]c3ccccc23)cc1S(=O)(=O)N1CCCCC1,"inconclusive: 0.461 µM [inhibitor, single point]",
O=C(c1ccccc1)c1nn(-c2ccc(Cl)cc2)c(=O)cc1C(F)(F)F,active: 11.2 µM,
C=C1SC(Nc2c(C)cc(C)cc2C)=NC12CCCCC2,"inconclusive: 22.4 µM [inhibitor, partial curve, poor fit]",
C=CCc1cc(Cl)ccc1OCCCNC(C)CC (centres undefined),"inconclusive: 25.1 µM [inhibitor, single point]",
COc1ccc(-n2ncc(C(=O)NC3CC3)c2C2CCN(C(=O)OC(C)(C)C)CC2)cc1,"inconclusive: 2.51 µM [inhibitor, full curve, poor fit]",
COc1ccccc1S(=O)(=O)Cc1ccc(C(=O)NCc2ccc(C)cc2)o1,"inconclusive: 17.8 µM [inhibitor, single point]",
CN(C)S(=O)(=O)c1ccc(C(=O)NCCSc2c(-c3ccc(Cl)cc3)[nH]c3ccccc23)cc1,"inconclusive: 35.5 µM [inhibitor, single point]",

# Some of the entries so far, with bars between the fields:
Compound | Potency | activity change, negative = inhibition
CC(C)(C)NC(=O)CN1CCCN(C(=O)COc2ccc(Cl)c3ccccc23)CC1 | inconclusive: 20 µM [inhibitor, partial curve, poor fit] | 
Cc1ccc(/C=C(\C#N)c2nc3ccccc3c(=O)[nH]2)cc1 |  | inactive: -19.5% [at 46.1 µM]
CCOc1ccccc1-n1c(SCC(N)=O)nnc1-c1ccc(O)cc1 | inconclusive: 4.11 µM [inhibitor, partial curve, poor fit] | 
Cc1ccc2nc(N(CCCN(C)C)C(=O)c3ccc(S(=O)(=O)N(C)C)cc3)sc2c1 |  | inactive: 11.6%
Cc1[nH]c2ccccc2c1C(=O)C(C)OC(=O)c1ccc(NC(=O)CC#N)cc1 (centres undefined) | inconclusive: 17.8 µM [inhibitor, partial curve, poor fit] | 
O=C(Nc1ncc(Cc2ccccc2)s1)c1cccs1 | inconclusive: 25.1 µM [inhibitor, single point] | 
O=C(NNC(=S)Nc1ccc(Cl)cc1)c1ccccc1OC(F)F | inconclusive: 35.5 µM [inhibitor, single point] | 
O=C1OC(C(=O)Nc2cc(C(F)(F)F)ccc2Cl)Cc2ccccc21 (centres undefined) |  | inactive: -18.4% [at 46.1 µM]
C=CCc1cc(Cl)ccc1OCCCNC(C)CC (centres undefined) | inconclusive: 25.1 µM [inhibitor, single point] | 
COc1ccc(-n2ncc(C(=O)NC3CC3)c2C2CCN(C(=O)OC(C)(C)C)CC2)cc1 | inconclusive: 2.51 µM [inhibitor, full curve, poor fit] | 
